According to article PMC7293280:
These are yes or no findings as the source states them, for the method shown. Binding seen in cells or lysates may run through a third protein. These calls come from enrichment with a bait or labelling near it, and not all partners need be listed.

Amino acid sequences for entries named in this document (tags omitted).
UniProt Q02248: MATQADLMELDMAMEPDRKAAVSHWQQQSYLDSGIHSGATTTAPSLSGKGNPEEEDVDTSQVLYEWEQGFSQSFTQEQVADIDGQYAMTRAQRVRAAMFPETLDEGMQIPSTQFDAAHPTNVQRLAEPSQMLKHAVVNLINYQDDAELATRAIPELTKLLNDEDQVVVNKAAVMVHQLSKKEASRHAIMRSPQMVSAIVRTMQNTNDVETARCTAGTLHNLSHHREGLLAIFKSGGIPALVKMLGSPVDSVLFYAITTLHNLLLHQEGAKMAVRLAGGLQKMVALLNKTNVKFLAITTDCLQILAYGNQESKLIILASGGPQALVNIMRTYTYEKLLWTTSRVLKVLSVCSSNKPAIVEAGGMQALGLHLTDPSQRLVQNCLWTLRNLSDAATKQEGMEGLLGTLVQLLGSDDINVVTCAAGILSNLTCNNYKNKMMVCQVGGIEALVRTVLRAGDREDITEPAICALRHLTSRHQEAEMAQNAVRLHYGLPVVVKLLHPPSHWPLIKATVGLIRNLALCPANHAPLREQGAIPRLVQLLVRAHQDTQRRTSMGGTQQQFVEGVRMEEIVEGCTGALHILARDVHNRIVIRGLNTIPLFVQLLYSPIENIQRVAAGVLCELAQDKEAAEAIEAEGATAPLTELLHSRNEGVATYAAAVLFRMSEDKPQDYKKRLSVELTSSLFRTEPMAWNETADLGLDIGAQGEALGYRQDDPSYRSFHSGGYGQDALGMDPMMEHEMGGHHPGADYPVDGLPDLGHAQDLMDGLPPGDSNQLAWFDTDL

Target: T1, ADNP (Activity Dependent Neuroprotective Protein), endogenous (mouse (endogenous in mouse R1 ESCs)) (UniProt Q9Z103)
T1 sequence: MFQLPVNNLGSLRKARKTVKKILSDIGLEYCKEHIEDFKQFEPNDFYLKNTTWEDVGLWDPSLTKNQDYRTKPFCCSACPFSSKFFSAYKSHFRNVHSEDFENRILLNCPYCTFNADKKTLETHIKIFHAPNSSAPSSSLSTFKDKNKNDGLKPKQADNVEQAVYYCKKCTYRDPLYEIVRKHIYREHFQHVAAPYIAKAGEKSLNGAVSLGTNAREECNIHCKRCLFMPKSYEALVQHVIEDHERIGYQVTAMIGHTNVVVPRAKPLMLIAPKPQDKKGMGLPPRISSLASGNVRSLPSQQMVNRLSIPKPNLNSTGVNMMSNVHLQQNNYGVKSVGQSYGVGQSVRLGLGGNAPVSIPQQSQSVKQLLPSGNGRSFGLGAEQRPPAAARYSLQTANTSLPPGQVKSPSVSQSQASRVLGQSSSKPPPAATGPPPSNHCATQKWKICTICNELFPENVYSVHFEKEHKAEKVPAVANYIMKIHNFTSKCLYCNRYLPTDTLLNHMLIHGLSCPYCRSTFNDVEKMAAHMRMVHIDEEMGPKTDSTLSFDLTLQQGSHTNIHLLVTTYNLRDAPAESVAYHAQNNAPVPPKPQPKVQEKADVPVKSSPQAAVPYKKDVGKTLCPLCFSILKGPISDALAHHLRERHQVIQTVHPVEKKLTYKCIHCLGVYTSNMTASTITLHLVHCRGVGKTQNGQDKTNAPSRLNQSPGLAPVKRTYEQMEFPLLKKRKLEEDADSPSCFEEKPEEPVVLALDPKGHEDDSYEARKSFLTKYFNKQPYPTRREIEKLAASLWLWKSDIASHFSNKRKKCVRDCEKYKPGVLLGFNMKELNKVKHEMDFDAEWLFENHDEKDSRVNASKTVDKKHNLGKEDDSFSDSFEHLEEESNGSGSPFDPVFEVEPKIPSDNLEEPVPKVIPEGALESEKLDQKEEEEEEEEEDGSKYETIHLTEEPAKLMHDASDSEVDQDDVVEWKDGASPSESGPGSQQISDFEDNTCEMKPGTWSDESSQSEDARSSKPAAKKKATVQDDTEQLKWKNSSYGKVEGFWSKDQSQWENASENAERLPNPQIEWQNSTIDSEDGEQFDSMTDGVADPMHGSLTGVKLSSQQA
Test: affinity purification with mass spectrometry; IP with ADNP antibody or IgG, whole lanes of an SDS-PAGE gel analysed by mass spectrometry; cells not given

binding: binds
Substance: β-catenin, endogenous (from UniProt Q02248 1-781)
